Counter-ions that a name gives are not always drawn. The list shows a part of the results. This data set is noisy: repeats of one test often differ as much as different tests do.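 A first-round screen of about ten thousand compounds sought those raising reporter output, using human embryonic kidney cells briefly transfected with a plasmid carrying a Renilla luciferase gene driven by the HSV-TK promoter.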
system: HEK 293FT; assay: log relative Renilla luciferase luminescence (reporter expression vs reference, reference not stated) (log (base not stated)); higher = higher recombinant reporter expression; conditions: 10 µM; time after transfection 48 h

`CC[C@H](C)C(=O)O[C@H]1C[C@H](O)C=C2C=C[C@H](C)[C@H](CC[C@@H](O)C[C@@H](O)CC(=O)O)[C@H]21` [Pravastatin] and `COC(=O)CCc1ccc(OCC(O)CNC(C)C)cc1` (stereo unspecified) [Esmolol hydrochloride] are within 0.2 log units of each other in log: 0.0824 for the first, 0.0523 for the second.

`CC(C)(C)NCC(O)COc1cccc2c1CC(O)C(O)C2` (stereo unspecified) [Nadolol] and `Cc1ccc(C)c(OCCCC(C)(C)C(=O)O)c1` [Gemfibrozil] are within 0.2 log units of each other in log: -0.157 for the first, 0.0127 for the second.

`CC(C)Cn1cnc2c(N)nc3ccccc3c21` [Imiquimod] and `Cc1c(NC(C)C)c(=O)n(-c2ccccc2)n1C` [Isopyrin hydrochloride] are within 0.2 log units of each other in log: -0.259 for the first, -0.145 for the second.

`NC(=O)N1c2ccccc2CC(=O)c2ccccc21` [Oxcarbazepine] and `CN1C(C(=O)Nc2ccccn2)=C(O)c2ccccc2S1(=O)=O` [Piroxicam] are within 0.2 log units of each other in log: -0.00375 for the first, 0.0612 for the second.

`Cc1cccc(Nc2ccncc2S(=O)(=O)NC(=O)NC(C)C)c1` [Torsemide] and `CC(C)NC(=N)NC(=N)Nc1ccc(Cl)cc1` [Proguanil hydrochloride] are within 0.2 log units of each other in log: 0.0241 for the first, -0.0733 for the second.

First: CC[N+](CC)(CC(=O)Nc1c(C)cccc1C)Cc1ccccc1 [Denatonium benzoate]
Second: CN(Cc1ccc(C(C)(C)C)cc1)Cc1cccc2ccccc12 [Butenafine Hydrochloride]
The log of the first is lower: -0.834 for the first, -0.0878 for the second.

Going from `COc1cc(NS(=O)(=O)c2ccc(N)cc2)nc(OC)n1` [Sulfadimethoxine] to `COc1cccc(N(C)C(=S)Oc2ccc3c(c2)CCCC3)n1` [Liranaftate], the log falls from -0.0818 to -1.17.

`CC1(C)O[C@@H]2[C@@H](CO[C@@]3(COS(N)(=O)=O)OC(C)(C)O[C@@H]23)O1` [Topiramate] and `C[C@]12CCC(=O)C=C1C=C[C@@H]1[C@@H]2CC[C@@]2(C)[C@H]1CC[C@@]21CCC(=O)O1` [Canrenone] are within 0.2 log units of each other in log: -0.144 for the first, -0.179 for the second.

`S=c1[nH]cnc2nc[nH]c12` [Mercaptopurine] and `NCCc1cc[nH]n1` [Betazole hydrochloride] are within 0.2 log units of each other in log: -0.117 for the first, 0.0303 for the second.

First: CCCCCCCCNC(C)C(O)c1ccc(SC(C)C)cc1 (stereo unspecified) [Suloctidil]
Second: CCCNC(C)C(=O)Nc1c(C)csc1C(=O)OC (stereo unspecified) [Articaine hydrochloride]
The log of the first is lower: -0.362 for the first, 0.121 for the second.

Going from `CC(=O)CC(c1ccc([N+](=O)[O-])cc1)c1c(O)c2ccccc2oc1=O` (stereo unspecified) [Acenocoumarol] to `CC1(C)S[C@@H]2[C@H](NC(=O)[C@H](N)c3ccccc3)C(=O)N2[C@H]1C(=O)OC1OC(=O)c2ccccc21` (stereo partly specified) [Talampicillin hydrochloride], the log rises from -0.309 to 0.00502.

`COc1ccc2c3c1O[C@H]1C[C@@H](O)C=C[C@@]31CCN(C)C2` [Galanthamine hydrobromide] and `COc1ccc2c(c1)C(=O)N(CCc1ccc(S(=O)(=O)NC(=O)NC3CCCCC3)cc1)C(=O)C2(C)C` [Gliquidone] are within 0.2 log units of each other in log: -0.0328 for the first, -0.0785 for the second.

`O=c1[nH]c(=O)n([C@H]2C[C@H](O)[C@@H](CO)O2)cc1C(F)(F)F` [Trifluridine] and `Cc1cn([C@H]2C[C@H](N=[N+]=[N-])[C@@H](CO)O2)c(=O)[nH]c1=O` [Zidovudine, AZT] are within 0.2 log units of each other in log: 0.0269 for the first, -0.0275 for the second.

Compared with `Cc1nnc(SCC2=C(C(=O)O)N3C(=O)[C@@H](NC(=O)Cn4cnnn4)[C@H]3SC2)s1` [Cefazolin sodium salt], `COCCOC(=O)C1=C(C)NC(C)=C(C(=O)OC(C)C)C1c1cccc([N+](=O)[O-])c1` (stereo unspecified) [Nimodipine] is lower in log: -0.0706 for the first, -1.52 for the second.

First: NC(=O)OCC(O)COc1ccc(Cl)cc1 (stereo unspecified) [Chlorphensin carbamate]
Second: CN(C)CCN(Cc1ccc(Cl)cc1)c1ccccn1 [Chloropyramine hydrochloride]
The log of the first is higher: 0.0655 for the first, -0.167 for the second.

`NC(=O)c1ccc[n+]([C@@H]2O[C@H](COP(=O)([O-])OP(=O)(O)OC[C@H]3O[C@@H](n4cnc5c(N)ncnc54)[C@H](O)[C@@H]3O)[C@@H](O)[C@H]2O)c1` [Nadide] and `COc1ccc([C@@H]2Sc3ccccc3N(CCN(C)C)C(=O)[C@@H]2OC(C)=O)cc1` [Diltiazem hydrochloride] are within 0.2 log units of each other in log: -0.0609 for the first, 0.125 for the second.

Compared with `CNCCC=C1c2ccccc2C=Cc2ccccc21` [Norcyclobenzaprine], `NS(=O)(=O)Cc1noc2ccccc12` [Zonisamide] is higher in log: -0.0865 for the first, 0.116 for the second.

`O=C(CCCN1CCC(O)(c2ccc(Cl)cc2)CC1)c1ccc(F)cc1` [Haloperidol] and `CC(C[N+](C)(C)C)OC(N)=O` (stereo unspecified) [Bethanechol chloride] are within 0.2 log units of each other in log: 0.102 for the first, 0.0496 for the second.
